Source: patent US8530475B2, “Bridged aryl piperazines derivatives useful for the treatment of CNS, GI-urinary and reproductive disorders” (Janssen Pharmaceutica NV, priority 2006, dated 2013)

By UniProt entry, the sequences of proteins in these tests, tags left out.
UniProt P08908, whole entry: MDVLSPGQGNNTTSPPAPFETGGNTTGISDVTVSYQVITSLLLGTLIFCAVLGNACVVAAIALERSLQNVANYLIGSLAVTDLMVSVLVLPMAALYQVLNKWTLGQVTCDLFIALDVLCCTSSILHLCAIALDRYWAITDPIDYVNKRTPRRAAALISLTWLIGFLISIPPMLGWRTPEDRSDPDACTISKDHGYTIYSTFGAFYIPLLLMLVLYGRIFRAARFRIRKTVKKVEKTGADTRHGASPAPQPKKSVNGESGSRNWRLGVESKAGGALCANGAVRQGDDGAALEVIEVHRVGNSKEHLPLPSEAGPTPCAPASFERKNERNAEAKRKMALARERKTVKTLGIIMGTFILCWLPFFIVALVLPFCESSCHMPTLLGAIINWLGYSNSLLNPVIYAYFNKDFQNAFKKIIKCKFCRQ

Target: human 5HT1A receptor (Homo sapiens, UniProt P08908)
Test: Radioligand binding to the 5-HT1A receptor, [3H]8-OH-DPAT
Settings: Example 77; membranes of HEK293 cells, [3H]8-OH-DPAT 0.5 nM; <5 = not active at up to 10 μM
Protocol: Frozen membranes of HEK293 cells, stably-transfected with human 5-HT1A receptor (Perkin Elmer) were thawed on ice, briefly homogenised with an Ultra Turrax homogeniser and then suspended in Tris-HCl buffer (50 mM pH 7.7) supplemented with CaCl2 (4 mM) at an appropriate pre-determined protein concentration (5-10 μg protein per incubation mixture). Together with [^3H]8-OH-DPAT (0.5 nM final concentration; Perkin Elmer, USA), the membrane suspension was added to the test compound and incubated (30 min at 37° C.) in a total volume of 400 μl. Non-specific binding was determined in the presence of Spiroxatrine (1 μM). Free radioligand was separated from the radioligand-receptor complex by means of rapid vacuum filtration over GF/B unifilter plates with a Packard Harvester Filtration Unit. Unifilter plates were washed with ice cold Tris-HCl buffer (50 mM, pH 8.0) and then dried overnight. Bound counts were measured in a Topcount Scintillation Counter in the presence of Microscint O.

h5HT1A pIC50: 6.44 and 6.75
Structure (SMILES): O[C@H](COc1cccc2[nH]ccc12)CN1C[C@@H]2CC=CC[C@H]1CN2c1ccc2ccccc2c1

For part of its entries the source gives two or more results. They are shown here; other results are not. The source may hold further records. Values given together appear to be repeats on other runs, samples or individuals.
